Source: US20200057058A1
No constants are given. Whether binding was seen depends on the method and setting. Some results given as binding are weak or reduced against the parent protein; the word gives no strength.

What was measured:
streptavidin [1] = target: streptavidin (UniProt P22629); assay: sandwich assay: SA in PBS captured on the monolayer, detected with biotin-HRP and TMB, absorbance at 450 nm
streptavidin [2] = target: streptavidin (UniProt P22629); assay: fluorescent time-course assay, labeled SA on monolayer
streptavidin [3] = target: streptavidin (UniProt P22629); assay: sandwich assay: SA in 50% urine captured on the monolayer, detected with biotin-HRP and TMB, absorbance at 450 nm
streptavidin [4] = target: streptavidin (UniProt P22629); assay: fluorescent binding assay: Alexa Fluor 647-labeled streptavidin applied to the monolayer, rinsed, fluorescence microscopy
streptavidin [5] = target: streptavidin (UniProt P22629); assay: fluorescent binding assay, labeled SA in 50% blood serum on the monolayer, 4 h exposure
streptavidin [6] = target: streptavidin (UniProt P22629); assay: sandwich assay: SA in 50% blood serum captured on the monolayer, detected with biotin-HRP and TMB, absorbance at 450 nm
streptavidin [7] = target: streptavidin (UniProt P22629); assay: fluorescent diffusion assay: monolayer exposed to 10 µM labeled SA for 0.5-8 h, rinsed
streptavidin [8] = target: streptavidin (UniProt P22629); assay: fluorescent binding assay, labeled SA in PBS on the monolayer, 4 h exposure
streptavidin [9] = target: streptavidin (UniProt P22629); assay: fluorescent binding assay, labeled SA in 50% urine on the monolayer, 4 h exposure

Measured: binding

B1: rcSso7d.SA monolayer (designed binder)
chain: MGSIHHHHHHSSGLVPRGSHMCATVKFTYQGEEKQVDISKIKIVARDGQYIDFKYDEGGGAYGYGWVSEKDAPKELLQMLEKQ
modifications: EDC/NHS-activated protein coupled to an amine-functionalized silicon wafer
binds: all assays above
